# These are yes or no findings as the source states them, for the method shown. In cells and extracts the contact can be indirect. Here binding means that the protein was enriched with, or labelled near, the bait; the list need not be complete.
# B1: Rrp12 (protein, UniProt Q5JTH9 1-1297)
# chain: MGRSGKLPSGVSAKLKRWKKGHSSDSNPAICRHRQAARSRFFSRPSGRSDLTVDAVKLHNELQSGSLRLGKSEAPETPMEEEAELVLTEKSSGTFLSGLSDCTNVTFSKVQRFWESNSAAHKEICAVLAAVTEVIRSQGGKETETEYFAALMTTMEAVESPESLAAVAYLLNLVLKRVPSPVLIKKFSDTSKAFMDIMSAQASSGSTSVLRWVLSCLATLLRKQDLEAWGYPVTLQVYHGLLSFTVHPKPKIRKAAQHGVCSVLKGSEFMFEKAPAHHPAAISTAKFCIQEIEKSGGSKEATTTLHMLTLLKDLLPCFPEGLVKSCSETLLRVMTLSHVLVTACAMQAFHSLFHARPGLSTLSAELNAQIITALYDYVPSENDLQPLLAWLKVMEKAHINLVRLQWDLGLGHLPRFFGTAVTCLLSPHSQVLTAATQSLKEILKECVAPHMADIGSVTSSASGPAQSVAKMFRAVEEGLTYKFHAAWSSVLQLLCVFFEACGRQAHPVMRKCLQSLCDLRLSPHFPHTAALDQAVGAAVTSMGPEVVLQAVPLEIDGSEETLDFPRSWLLPVIRDHVQETRLGFFTTYFLPLANTLKSKAMDLAQAGSTVESKIYDTLQWQMWTLLPGFCTRPTDVAISFKGLARTLGMAISERPDLRVTVCQALRTLITKGCQAEADRAEVSRFAKNFLPILFNLYGQPVAAGDTPAPRRAVLETIRTYLTITDTQLVNSLLEKASEKVLDPASSDFTRLSVLDLVVALAPCADEAAISKLYSTIRPYLESKAHGVQKKAYRVLEEVCASPQGPGALFVQSHLEDLKKTLLDSLRSTSSPAKRPRLKCLLHIVRKLSAEHKEFITALIPEVILCTKEVSVGARKNAFALLVEMGHAFLRFGSNQEEALQCYLVLIYPGLVGAVTMVSCSILALTHLLFEFKGLMGTSTVEQLLENVCLLLASRTRDVVKSALGFIKVAVTVMDVAHLAKHVQLVMEAIGKLSDDMRRHFRMKLRNLFTKFIRKFGFELVKRLLPEEYHRVLVNIRKAEARAKRHRALSQAAVEEEEEEEEEEEPAQGKGDSIEEILADSEDEEDNEEEERSRGKEQRKLARQRSRAWLKEGGGDEPLNFLDPKVAQRVLATQPGPGRGRKKDHGFKVSADGRLIIREEADGNKMEEEEGAKGEDEEMADPMEDVIIRNKKHQKLKHQKEAEEEELEIPPQYQAGGSGIHRPVAKKAMPGAEYKAKKAKGDVKKKGRPDPYAYIPLNRSKLNRRKKMKLQGQFKGLVKAARRGSQVGHKNRRKDRRP
# B2: Baz1b (protein, UniProt Q9UIG0 1-1483)
# chain: MAPLLGRKPFPLVKPLPGEEPLFTIPHTQEAFRTREEYEARLERYSERIWTCKSTGSSQLTHKEAWEEEQEVAELLKEEFPAWYEKLVLEMVHHNTASLEKLVDTAWLEIMTKYAVGEECDFEVGKEKMLKVKIVKIHPLEKVDEEATEKKSDGACDSPSSDKENSSQIAQDHQKKETVVKEDEGRRESINDRARRSPRKLPTSLKKGERKWAPPKFLPHKYDVKLQNEDKIISNVPADSLIRTERPPNKEIVRYFIRHNALRAGTGENAPWVVEDELVKKYSLPSKFSDFLLDPYKYMTLNPSTKRKNTGSPDRKPSKKSKTDNSSLSSPLNPKLWCHVHLKKSLSGSPLKVKNSKNSKSPEEHLEEMMKMMSPNKLHTNFHIPKKGPPAKKPGKHSDKPLKAKGRSKGILNGQKSTGNSKSPKKGLKTPKTKMKQMTLLDMAKGTQKMTRAPRNSGGTPRTSSKPHKHLPPAALHLIAYYKENKDREDKRSALSCVISKTARLLSSEDRARLPEELRSLVQKRYELLEHKKRWASMSEEQRKEYLKKKREELKKKLKEKAKERREKEMLERLEKQKRYEDQELTGKNLPAFRLVDTPEGLPNTLFGDVAMVVEFLSCYSGLLLPDAQYPITAVSLMEALSADKGGFLYLNRVLVILLQTLLQDEIAEDYGELGMKLSEIPLTLHSVSELVRLCLRRSDVQEESEGSDTDDNKDSAAFEDNEVQDEFLEKLETSEFFELTSEEKLQILTALCHRILMTYSVQDHMETRQQMSAELWKERLAVLKEENDKKRAEKQKRKEMEAKNKENGKVENGLGKTDRKKEIVKFEPQVDTEAEDMISAVKSRRLLAIQAKKEREIQEREMKVKLERQAEEERIRKHKAAAEKAFQEGIAKAKLVMRRTPIGTDRNHNRYWLFSDEVPGLFIEKGWVHDSIDYRFNHHCKDHTVSGDEDYCPRSKKANLGKNASMNTQHGTATEVAVETTTPKQGQNLWFLCDSQKELDELLNCLHPQGIRESQLKERLEKRYQDIIHSIHLARKPNLGLKSCDGNQELLNFLRSDLIEVATRLQKGGLGYVEETSEFEARVISLEKLKDFGECVIALQASVIKKFLQGFMAPKQKRRKLQSEDSAKTEEVDEEKKMVEEAKVASALEKWKTAIREAQTFSRMHVLLGMLDACIKWDMSAENARCKVCRKKGEDDKLILCDECNKAFHLFCLRPALYEVPDGEWQCPACQPATARRNSRGRNYTEESASEDSEDDESDEEEEEEEEEEEEEDYEVAGLRLRPRKTIRGKHSVIPPAARSGRRPGKKPHSTRRSQPKAPPVDDAEVDELVLQTKRSSRRQSLELQKCEEILHKIVKYRFSWPFREPVTRDEAEDYYDVITHPMDFQTVQNKCSCGSYRSVQEFLTDMKQVFTNAEVYNCRGSHVLSCMVKTEQCLVALLHKHLPGHPYVRRKRKKFPDRLAEDEGDSEPEAVGQSRGRRQKK
# B3: Usp22 (protein, UniProt Q9UPT9 1-525)
# chain: MVSRPEPEGEAMDAELAVAPPGCSHLGSFKVDNWKQNLRAIYQCFVWSGTAEARKRKAKSCICHVCGVHLNRLHSCLYCVFFGCFTKKHIHEHAKAKRHNLAIDLMYGGIYCFLCQDYIYDKDMEIIAKEEQRKAWKMQGVGEKFSTWEPTKRELELLKHNPKRRKITSNCTIGLRGLINLGNTCFMNCIVQALTHTPLLRDFFLSDRHRCEMQSPSSCLVCEMSSLFQEFYSGHRSPHIPYKLLHLVWTHARHLAGYEQQDAHEFLIAALDVLHRHCKGDDNGKKANNPNHCNCIIDQIFTGGLQSDVTCQVCHGVSTTIDPFWDISLDLPGSSTPFWPLSPGSEGNVVNGESHVSGTTTLTDCLRRFTRPEHLGSSAKIKCSGCHSYQESTKQLTMKKLPIVACFHLKRFEHSAKLRRKITTYVSFPLELDMTPFMASSKESRMNGQYQQPTDSLNNDNKYSLFAVVNHQGTLESGHYTSFIRQHKDQWFKCDDAIITKASIKDVLDSEGYLLFYHKQFLEYE
# B4: Dis3 (protein, UniProt Q9Y2L1 1-958)
# chain: MLKSKTFLKKTRAGGVMKIVREHYLRDDIGCGAPGCAACGGAHEGPALEPQPQDPASSVCPQPHYLLPDTNVLLHQIDVLEDPAIRNVIVLQTVLQEVRNRSAPVYKRIRDVTNNQEKHFYTFTNEHHRETYVEQEQGENANDRNDRAIRVAAKWYNEHLKKMSADNQLQVIFITNDRRNKEKAIEEGIPAFTCEEYVKSLTANPELIDRLACLSEEGNEIESGKIIFSEHLPLSKLQQGIKSGTYLQGTFRASRENYLEATVWIHGDNEENKEIILQGLKHLNRAVHEDIVAVELLPKSQWVAPSSVVLHDEGQNEEDVEKEEETERMLKTAVSEKMLKPTGRVVGIIKRNWRPYCGMLSKSDIKESRRHLFTPADKRIPRIRIETRQASTLEGRRIIVAIDGWPRNSRYPNGHFVRNLGDVGEKETETEVLLLEHDVPHQPFSQAVLSFLPKMPWSITEKDMKNREDLRHLCICSVDPPGCTDIDDALHCRELENGNLEVGVHIADVSHFIRPGNALDQESARRGTTVYLCEKRIDMVPELLSSNLCSLKCDVDRLAFSCIWEMNHNAEILKTKFTKSVINSKASLTYAEAQLRIDSANMNDDITTSLRGLNKLAKILKKRRIEKGALTLSSPEVRFHMDSETHDPIDLQTKELRETNSMVEEFMLLANISVAKKIHEEFSEHALLRKHPAPPPSNYEILVKAARSRNLEIKTDTAKSLAESLDQAESPTFPYLNTLLRILATRCMMQAVYFCSGMDNDFHHYGLASPIYTHFTSPIRRYADVIVHRLLAVAIGADCTYPELTDKHKLADICKNLNFRHKMAQYAQRASVAFHTQLFFKSKGIVSEEAYILFVRKNAIVVLIPKYGLEGTVFFEEKDKPNPQLIYDDEIPSLKIEDTVFHVFDKVKVKIMLDSSNLQHQKIRMSLVEPQIPGISIPTDTSNMDLNGPKKKKMKLGK
# B5: Noc4l (protein, UniProt Q9BVI4 1-516)
# chain: MEREPGAAGVRRALGRRLEAVLASRSEANAVFDILAVLQSEDQEEIQEAVRTCSRLFGALLERGELFVGQLPSEEMVMTGSQGATRKYKVWMRHRYHSCCNRLGELLGHPSFQVKELALSALLKFVQLEGAHPLEKSKWEGNYLFPRELFKLVVGGLLSPEEDQSLLLSQFREYLDYDDTRYHTMQAAVDAVARVTGQHPEVPPAFWNNAFTLLSAVSLPRREPTVSSFYVKRAELWDTWKVAHLKEHRRVFQAMWLSFLKHKLPLSLYKKVLLIVHDAILPQLAQPTLMIDFLTRACDLGGALSLLALNGLFILIHKHNLEYPDFYRKLYGLLDPSVFHVKYRARFFHLADLFLSSSHLPAYLVAAFAKRLARLALTAPPEALLMVLPFICNLLRRHPACRVLVHRPHGPELDADPYDPGEEDPAQSRALESSLWELQALQRHYHPEVSKAASVINQALSMPEVSIAPLLELTAYEIFERDLKKKGPEPVPLEFIPAQGLLGRPGELCAQHFTLS
# B6: Nop14 (protein, UniProt P78316 1-857)
# chain: MAKAKKVGARRKASGAPAGARGGPAKANSNPFEVKVNRQKFQILGRKTRHDVGLPGVSRARALRKRTQTLLKEYKERDKSNVFRDKRFGEYNSNMSPEEKMMKRFALEQQRHHEKKSIYNLNEDEELTHYGQSLADIEKHNDIVDSDSDAEDRGTLSAELTAAHFGGGGGLLHKKTQQEGEEREKPKSRKELIEELIAKSKQEKRERQAQREDALELTEKLDQDWKEIQTLLSHKTPKSENRDKKEKPKPDAYDMMVRELGFEMKAQPSNRMKTEAELAKEEQEHLRKLEAERLRRMLGKDEDENVKKPKHMSADDLNDGFVLDKDDRRLLSYKDGKMNVEEDVQEEQSKEASDPESNEEEGDSSGGEDTEESDSPDSHLDLESNVESEEENEKPAKEQRQTPGKGLISGKERAGKATRDELPYTFAAPESYEELRSLLLGRSMEEQLLVVERIQKCNHPSLAEGNKAKLEKLFGFLLEYVGDLATDDPPDLTVIDKLVVHLYHLCQMFPESASDAIKFVLRDAMHEMEEMIETKGRAALPGLDVLIYLKITGLLFPTSDFWHPVVTPALVCLSQLLTKCPILSLQDVVKGLFVCCLFLEYVALSQRFIPELINFLLGILYIATPNKASQGSTLVHPFRALGKNSELLVVSAREDVATWQQSSLSLRWASRLRAPTSTEANHIRLSCLAVGLALLKRCVLMYGSLPSFHAIMGPLQALLTDHLADCSHPQELQELCQSTLTEMESQKQLCRPLTCEKSKPVPLKLFTPRLVKVLEFGRKQGSSKEEQERKRLIHKHKREFKGAVREIRKDNQFLARMQLSEIMERDAERKRKVKQLFNSLATQEGEWKALKRKKFKK
# Biological target: Biotin-FOXC1 (mouse) (UniProt Q61572)
# Assay: affinity purification with mass spectrometry; streptavidin-agarose precipitation of biotinylated FOXC1 from nuclear extract of stable HEK293T cells (293T-Biotin-FOXC1); IP350 buffer (350 mM NaCl, 20 mM Tris-HCl pH 7.5, 0.5% NP40, 1 mM EDTA, 10% glycerin); SDS-PAGE, LC-ESI-MS/MS; proteins of the 293T-Biotin control deducted
row,binding,Binder
1,binds,B1
2,binds,B2
3,binds,B3
4,binds,B4
5,binds,B5
6,binds,B6

# From article PMC7956269
